From the supplement of paper PMC8728848
The other results are listed elsewhere or left out.

Tests used:
Assay in all cases: glycan array binding signal (z-score within array); higher = stronger binding
Details in all cases: glycan notation: IUPAC condensed, linker removed
[1] = target: Gal(b1-4)GlcNAc(b1-3)Gal(b1-4)[Fuc(a1-3)]GlcNAc(b1-3)Gal(b1-4)[Fuc(a1-3)]GlcNAc
Summary of the method: (§1)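 From the Consortium for Functional Glycomics database, 3228 arrays were curated, keeping only those whose protein sequence was available. Binding is given as a within-array Z-score averaged across arrays sharing a protein sequence and across linkers. Negative Z-scores can be read as non-binding.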

[2] = target: Gal(b1-4)GlcNAc(b1-3)GalNAc
Summary of the method: as §1

[3] = target: Gal(b1-4)GlcNAc(b1-3)[Gal(b1-4)GlcNAc(b1-6)]Gal(b1-4)GlcNAc
Summary of the method: as §1

[4] = target: Gal(b1-4)GlcNAc(b1-3)[GlcNAc(b1-6)]Gal(b1-4)GlcNAc
Summary of the method: as §1

[5] = target: Gal(b1-4)GlcNAc(b1-6)Gal(b1-4)GlcNAc
Summary of the method: as §1

[6] = target: Gal(b1-4)GlcNAc(b1-6)Gal(b1-4)GlcNAc(b1-6)GalNAc
Summary of the method: as §1

[7] = target: Gal(b1-4)GlcNAc(b1-6)GalNAc
Summary of the method: as §1

[8] = target: Gal(b1-4)GlcNAc(b1-6)[Gal(b1-3)]GalNAc
Summary of the method: as §1

[9] = target: Gal3S(b1-3)GalNAc
Summary of the method: as §1

[10] = target: Gal3S(b1-3)GlcNAc
Summary of the method: as §1

[11] = target: Gal3S(b1-3)[Fuc(a1-4)]GlcNAc
Summary of the method: as §1

[12] = target: Gal3S(b1-4)Glc
Summary of the method: as §1

[13] = target: Gal3S(b1-4)Glc6S
Summary of the method: as §1

[14] = target: Gal3S(b1-4)GlcNAc
Summary of the method: as §1

[15] = target: Gal3S(b1-4)GlcNAc6S
Summary of the method: as §1

[16] = target: Gal3S(b1-4)[Fuc(a1-3)]Glc
Summary of the method: as §1

[17] = target: Gal3S4S(b1-4)GlcNAc
Summary of the method: as §1

[18] = target: Gal3S6S(b1-4)GlcNAc
Summary of the method: as §1

[19] = target: Gal3S6S(b1-4)GlcNAc6S
Summary of the method: as §1

[20] = target: Gal4S(b1-4)GlcNAc
Summary of the method: as §1

[21] = target: Gal4S6S(b1-4)GlcNAc
Summary of the method: as §1

[22] = target: Gal6S(b1-4)Glc
Summary of the method: as §1

[23] = target: Gal6S(b1-4)Glc6S
Summary of the method: as §1

[24] = target: Gal6S(b1-4)GlcNAc
Summary of the method: as §1

[25] = target: Gal6S(b1-4)GlcNAc6S
Summary of the method: as §1

[26] = target: GalNAc(a1-3)Gal
Summary of the method: as §1

[27] = target: GalNAc(a1-3)GalNAc
Summary of the method: as §1

[28] = target: GalNAc(b1-3)Gal
Summary of the method: as §1

[29] = target: GalNAc(b1-3)Gal(a1-4)Gal(b1-4)GlcNAc
Summary of the method: as §1

[30] = target: GalNAc(b1-3)GalNAc
Summary of the method: as §1

[31] = target: GalNAc(b1-4)GlcNAc
Summary of the method: as §1

[32] = target: Glc(a1-4)Glc
Summary of the method: as §1

[33] = target: Glc(a1-6)Glc(a1-6)Glc
Summary of the method: as §1

[34] = target: Glc(b1-4)Glc
Summary of the method: as §1

[35] = target: Glc(b1-6)Glc
Summary of the method: as §1

[36] = target: GlcA(b1-3)Gal
Summary of the method: as §1

[37] = target: GlcA(b1-3)GlcNAc
Summary of the method: as §1

[38] = target: GlcA(b1-6)Gal
Summary of the method: as §1

[39] = target: GlcNAc(a1-3)Gal(b1-4)GlcNAc
Summary of the method: as §1

[40] = target: GlcNAc(a1-6)Gal(b1-4)GlcNAc
Summary of the method: as §1

[41] = target: GlcNAc(b1-2)Gal(b1-3)GalNAc
Summary of the method: as §1

[42] = target: GlcNAc(b1-2)Man(a1-3)[GlcNAc(b1-2)Man(a1-6)]Man(b1-4)GlcNAc(b1-4)GlcNAc
Summary of the method: as §1

[43] = target: GlcNAc(b1-3)Gal
Summary of the method: as §1

[44] = target: GlcNAc(b1-3)Gal(b1-3)GalNAc
Summary of the method: as §1

[45] = target: GlcNAc(b1-3)Gal(b1-4)Glc
Summary of the method: as §1

B1: RfpC (Mycobacterium tuberculosum), O07747 (protein)
chain: MHHHHHHSSGRENLYFQGHMASKSAMAAGLVTASMSLSTAVAHAGPSPNWDAVAQCESGGNWAANTGNGKYGGLQFKPATWAAFGGVGNPAAASREQQIAVANRVLAEQGLDAWPTCGAASGLPIALWSKPAQGIKGS
For B1, which “glycan array binding signal (z-score)” value [1] is on record?
The value was -0.25.

And the “glycan array binding signal (z-score)” value [2]?
The value was -0.607.

And the “glycan array binding signal (z-score)” value [3]?
Its value is 0.698.

What about the “glycan array binding signal (z-score)” value [4] of the same binder?
The value was 0.313.

What about the “glycan array binding signal (z-score)” value [5] of the same binder?
Its value is 0.164.

And the “glycan array binding signal (z-score)” value [6]?
Its value is -0.701.

What about the “glycan array binding signal (z-score)” value [7] of the same binder?
Its value is -0.822.

What about the “glycan array binding signal (z-score)” value [8] of the same binder?
Its value is -0.17.

What about the “glycan array binding signal (z-score)” value [9] of the same binder?
The value was 0.079.

And the “glycan array binding signal (z-score)” value [10]?
The value was 0.156.

What about the “glycan array binding signal (z-score)” value [11] of the same binder?
Its value is -0.235.

What about the “glycan array binding signal (z-score)” value [12] of the same binder?
The value was 1.18.

And the “glycan array binding signal (z-score)” value [13]?
The value was -0.77.

And the “glycan array binding signal (z-score)” value [14]?
Its value is 0.412.

What about the “glycan array binding signal (z-score)” value [15] of the same binder?
Its value is 0.243.

What about the “glycan array binding signal (z-score)” value [16] of the same binder?
The value was -0.781.

And the “glycan array binding signal (z-score)” value [17]?
The value was 0.32.

What about the “glycan array binding signal (z-score)” value [18] of the same binder?
The value was -1.36.

And the “glycan array binding signal (z-score)” value [19]?
Its value is 1.22.

And the “glycan array binding signal (z-score)” value [20]?
Its value is 0.815.

And the “glycan array binding signal (z-score)” value [21]?
The value was 0.323.

And the “glycan array binding signal (z-score)” value [22]?
The value was -0.902.

What about the “glycan array binding signal (z-score)” value [23] of the same binder?
The value was 0.121.

And the “glycan array binding signal (z-score)” value [24]?
The value was -1.18.

What about the “glycan array binding signal (z-score)” value [25] of the same binder?
The value was 1.16.

What about the “glycan array binding signal (z-score)” value [26] of the same binder?
Its value is 0.898.

What about the “glycan array binding signal (z-score)” value [27] of the same binder?
Its value is -0.5.

What about the “glycan array binding signal (z-score)” value [28] of the same binder?
The value was 0.853.

What about the “glycan array binding signal (z-score)” value [29] of the same binder?
Its value is 3.74.

And the “glycan array binding signal (z-score)” value [30]?
The value was 0.625.

And the “glycan array binding signal (z-score)” value [31]?
Its value is -0.564.

What about the “glycan array binding signal (z-score)” value [32] of the same binder?
The value was 0.301.

And the “glycan array binding signal (z-score)” value [33]?
Its value is 2.41.

And the “glycan array binding signal (z-score)” value [34]?
Its value is -0.789.

And the “glycan array binding signal (z-score)” value [35]?
The value was -0.717.

And the “glycan array binding signal (z-score)” value [36]?
The value was -0.934.

What about the “glycan array binding signal (z-score)” value [37] of the same binder?
Its value is 1.57.

What about the “glycan array binding signal (z-score)” value [38] of the same binder?
The value was -0.959.

What about the “glycan array binding signal (z-score)” value [39] of the same binder?
Its value is -0.298.

And the “glycan array binding signal (z-score)” value [40]?
The value was -0.432.

What about the “glycan array binding signal (z-score)” value [41] of the same binder?
The value was 0.268.

And the “glycan array binding signal (z-score)” value [42]?
Its value is 0.128.

What about the “glycan array binding signal (z-score)” value [43] of the same binder?
The value was -0.187.

And the “glycan array binding signal (z-score)” value [44]?
Its value is 1.06.

What about the “glycan array binding signal (z-score)” value [45] of the same binder?
The value was 1.79.
